# Hit rate of the full screen: of about 220,000 compounds, about 2,400 (1.1%) were called active. This list was built around the results that the source calls inconclusive (neither active nor inactive); the mix of calls is not that of the screen. Calls follow the shape of the dose curve; as a rule, active = well fitted inhibition curve with a large enough effect; inconclusive = small, poorly fitted or top-dose-only effect, or effect the other way; inactive = no such curve, though single readings can be large or run the other way. Where the call is inconclusive, the potency comes from a doubtful curve fit. Peptide text beside a SMILES is read from it. * marks the point of attachment. Boc = CC(C)(C)OC(=O)*
# Assay: qHTS Multiplex Assay to Identify Dual Action Probes in a Cell Model of Huntington: Aggregate Formation (GFP); also: nearly all actives have a fitted effect of over 60% in size
# Conditions: PC12 HttQ103-GFP aggregates, Acumen cytometry, 40 h; activity change, negative = inhibition: at 46.1 µM (top of the series) unless noted
# Method in brief: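 PC12 cells with ecdysone-inducible HTT exon1 Q103-GFP, induced by 100 nM tebufenozide, given compounds in a concentration series. GFP aggregates (1–25 um, 6 SD above background) counted in lysates by laser-scanning cytometry, 488 nm excitation.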
# % is scaled to controls: 0 for no effect and ±100 for the full control effect; potency is read from the fitted curve at half-maximal effect.
SMILES,"activity change, negative = inhibition",Potency
CC(=O)N1c2ccccc2C2(O)N=C(C)SC12 (stereo unspecified),inactive: -10.4%,–
Cn1c(SCC(=O)N2CCCc3ccccc32)nnc1-c1ccco1,–,"inconclusive: 35.5 µM [inhibitor, single point]"
Cn1c(N)c(C(=O)CSc2nc3ccccc3c(=O)n2CCCN2CCOCC2)c(=O)n(C)c1=O,–,"inconclusive: 14.1 µM [activator, single point]"
O=C(NCc1ccc2c(c1)OCO2)C1CCCN(S(=O)(=O)c2cccnc2)C1 (stereo unspecified),–,active: 31.6 µM
Cc1nnc(SCC2=C(C(=O)O)N3C(=O)C(NC(=O)Cn4nc(C(F)F)c(Cl)c4C)C3SC2)s1 (stereo unspecified),–,"inconclusive: 8.91 µM [activator, single point]"
Cc1nc(NC(C)c2ccccc2)sc1C(=O)Nc1ccccc1 (stereo unspecified),–,"inconclusive: 22.4 µM [inhibitor, single point]"
O=C(NNc1ccnc2cc(Cl)ccc12)C1CCCCC1,inactive: -39.6%,–
CCOC(=O)C(Cc1ccc(O)cc1)NC(=O)CNC(=O)C(CC(C)C)NC(=O)OC(C)(C)C (stereo not drawn) (Boc-Leu-Gly-Tyr-OEt; configuration not given here),–,"inconclusive: 35.5 µM [inhibitor, single point]"
COc1cccc(-c2csc3nc[nH]c(=O)c23)c1,inactive: -0.833%,–
COc1ccc(OC)c(Nc2cc(C)nc3ccccc23)c1,inactive: -27.1%,–
CC(=O)Nc1ccc(S(=O)(=O)Nc2nc3ccc([N+](=O)[O-])cc3s2)cc1,inactive: 13%,–
CCOc1ccc2[nH]c3c(N4CCN(c5ccccn5)CC4)ncnc3c2c1,–,"inconclusive: 12.6 µM [inhibitor, single point]"
CCCc1cc(C(=O)N2CCN(S(=O)(=O)c3ccc(OC)c(OC)c3)CC2)cs1,inactive: -24.1%,–
COc1cc(OC)cc(C(=O)NCC(=O)OCc2nc3ccccc3s2)c1,–,"inconclusive: 3.98 µM [inhibitor, single point]"
CC(C(=O)NC1CCCC1)N(C(=O)c1ccc(-c2ccccc2)[nH]1)c1ccccc1F (stereo unspecified),–,"inconclusive: 25.1 µM [inhibitor, single point]"
O=C(NC(c1ccc(Cl)cc1)c1cc(Cl)c2cccnc2c1O)c1cccnc1 (stereo unspecified),–,active: 8.91 µM
CCN(CC)CCNC(=O)c1ccc(Sc2ccc(C)cc2)c(NC(C)=O)c1,inactive: -13%,–
CCN(Cc1ccncc1)Cc1nc(Cc2ccccc2Cl)no1,–,active: 17.8 µM
CC1Nc2ccccc2C(=O)N1NC(=O)c1ccc(Br)cc1 (stereo unspecified),–,"inconclusive: 3.16 µM [activator, single point]"
Cc1cc(N2CCN(C)CC2)nc2ccc(NC(=S)NCCN3CCc4ccccc4C3)cc12,–,"inconclusive: 25.1 µM [inhibitor, single point]"
N#CCCSc1ncnc2c1oc1ccccc12,–,"inconclusive: 1 µM [inhibitor, single point]"
CC1=Nc2cccc3cccc(c23)N1,inactive: 17.5%,–
COc1ccc(-c2csc(N3CCN(C(=O)c4ccco4)CC3)n2)cc1,–,"inconclusive: 35.5 µM [inhibitor, single point]"
CC[n+]1c(/C=C2\C=C(C)CC(C)(C)C2)sc2ccccc21,–,"inconclusive: 4.47 µM [inhibitor, full curve]"

SMILES,"activity change, negative = inhibition",Potency
Cn1c(SCC(=O)Nc2cccc(S(=O)(=O)NC3=NCCCCC3)c2)nnc1-c1ccccc1,inactive: 23.6%,–
C[C@@H]1Cc2ccccc2N1NC(=O)c1ccc(Cl)c(S(N)=O)c1 (stereo partly specified),–,"inconclusive: 2.51 µM [activator, partial curve, poor fit]"
Cc1ccc(C(=O)c2c[nH]c(C(=O)NCc3cccnc3)c2)cc1,–,"inconclusive: 17.8 µM [inhibitor, partial curve]"
N#Cc1c(NC(=O)c2ccc(Br)o2)n(-c2ccccc2)c2nc3ccccc3nc12,inactive: -3.54% [at 9.22 µM],–
O=C1C2C3C=CC(CNS(=O)(=O)c4ccccc4)(O3)C2C(=O)N1c1ccc(Cl)cc1 (stereo unspecified),inactive: 16.9%,–
CCOc1ccccc1N=c1oc2cc(O)ccc2cc1C(=O)NCC1CCCO1 (stereo unspecified),–,"inconclusive: 35.5 µM [activator, single point]"
Cn1c(=O)c2c(nc(SCC(=O)O)n2Cc2cc3c(cc2Cl)OCO3)n(C)c1=O,inactive: 5.22%,–
O=C(COc1ccccc1[N+](=O)[O-])N/N=C/c1ccncc1,–,"inconclusive: 35.5 µM [inhibitor, single point]"
CC1=NN(c2ccc(Cl)cc2)C(=O)C1C(c1ccccc1O)c1c(C)[nH]n(-c2ccc(Cl)cc2)c1=O (stereo unspecified),–,"inconclusive: 35.5 µM [inhibitor, single point]"
COc1ccc(/C=N\NC(=O)CNC(=O)C(c2ccccc2)c2ccccc2)cc1[N+](=O)[O-],–,"inconclusive: 22.4 µM [activator, single point]"
Cc1ccsc1-c1nc(CSCC(=O)N2CCN(c3ccccc3)CC2)c(C)o1,–,active: 12.6 µM
Cc1ccsc1/C=C1/SC(N2CC(C)OC(C)C2)=NC1=O (stereo unspecified),–,"inconclusive: 3.16 µM [activator, partial curve]"
CCCCN(C)CCCNC(=O)c1ccc2c(c1)NC(=O)C(N1CCOCC1)S2 (stereo unspecified),–,"inconclusive: 0.112 µM [activator, partial curve]"
Cc1ccccc1-n1ncc2c(SCC(=O)N3c4ccccc4CC3C)ncnc21 (stereo unspecified),inactive: 4.37%,–
C=CCSC1=NC(N)=C(C#N)C2(CCCCC2)C1C(N)=O (stereo unspecified),inactive: -0.067%,–
O=[N+]([O-])c1cc(Cl)cc(/C=N\Nc2ccccn2)c1O,–,active: 2.24 µM
CCCC(C)C(=O)Nc1nc(C)c(-c2csc(Nc3ccc(Cl)cc3)n2)s1 (stereo unspecified),–,"inconclusive: 12.6 µM [inhibitor, partial curve]"
CCC(/C=C1\Sc2ccc(OC)cc2N1CCO)=C\c1sc2ccc(OC)cc2[n+]1CCO,–,"inconclusive: 10 µM [inhibitor, partial curve]"
Cc1ccc(O)c(N=Cc2cccs2)c1,–,"inconclusive: 12.6 µM [activator, single point]"
c1ccc(-n2c(SCc3nc(-c4cccs4)no3)nnc2-c2ccco2)cc1,–,"inconclusive: 35.5 µM [inhibitor, single point]"
Cc1nnc(SCC(=O)Nc2nc3c(s2)CC(C)CC3)s1 (stereo unspecified),–,"inconclusive: 0.562 µM [inhibitor, partial curve, poor fit]"
Cn1ncc2c(Nc3cccc(Cl)c3)nc(Nc3cccc(Cl)c3)nc21,inactive: -34.3% [at 9.22 µM],–
CCOc1ccc(NS(=O)(=O)c2cc(NC(=O)CCC(=O)c3cccs3)ccc2Cl)cc1,–,"inconclusive: 14.1 µM [inhibitor, single point]"
Cc1cc(C(F)(F)F)n2nc(C)c(-c3ccc(Cl)cc3)c2n1,–,"inconclusive: 3.55 µM [activator, partial curve]"

# Whole records, quoted from the list. Values in the order: activity change, negative = inhibition | Potency
# `Cn1c(SCC(=O)N2CCCc3ccccc32)nnc1-c1ccco1` in the list: – | inconclusive: 35.5 µM [inhibitor, single point]
# `O=C(NNc1ccnc2cc(Cl)ccc12)C1CCCCC1` in the list: inactive: -39.6% | –
# `COc1ccc(-c2csc(N3CCN(C(=O)c4ccco4)CC3)n2)cc1` in the list: – | inconclusive: 35.5 µM [inhibitor, single point]
# `Cc1nc(NC(C)c2ccccc2)sc1C(=O)Nc1ccccc1` (stereo unspecified) in the list: – | inconclusive: 22.4 µM [inhibitor, single point]

# (list continues)

SMILES,"activity change, negative = inhibition",Potency
COc1ccc(CNn2c(-c3cccs3)nc3ccccc3c2=O)cc1OC,–,"inconclusive: 25.1 µM [inhibitor, single point]"
O=C(NCc1ccco1)c1ccc(COc2ccc(Cl)cc2)cc1,inactive: -9.55%,–
NC(=O)CC(NC(=O)c1ccccc1)c1ccc(NCCc2ccc(Cl)cc2)c([N+](=O)[O-])c1 (stereo unspecified),inactive: 15.1% [at 9.22 µM],–
O=C(Nc1ccc(OC(F)(F)F)cc1)c1ccc2nccnc2c1,–,"inconclusive: 5.62 µM [inhibitor, full curve, poor fit]"
CSc1nc2nc3c(cc2c(=O)n1-c1ccc(C)cc1)COC(C)(C)C3,inactive: 8.66% [at 9.22 µM],–
COc1ccc2cc3c(N)nn(C(=O)c4ccc(Cl)c([N+](=O)[O-])c4)c3nc2c1,–,active: 2.82 µM
O=C(Cn1c(O)c(N=NC(=O)c2ccncc2)c2ccccc21)Nc1ccccc1,inactive: 10.7% [at 9.22 µM],–
FC(F)(F)c1cc(-c2ccc(Cl)cc2)nc(NCc2cccnc2)n1,–,"inconclusive: 35.5 µM [inhibitor, single point]"
Cc1ccc2c(Cl)cc(Cl)c(OCC(=O)NC(=O)NCc3ccco3)c2n1,inactive: -0.537%,–
Cn1c(C(=O)N2CCc3ccccc3C2)cc2oc3ccccc3c21,–,"inconclusive: 35.5 µM [inhibitor, partial curve]"
CCOc1ccccc1-n1c(SCC(N)=O)nnc1-c1cccnc1,–,"inconclusive: 0.447 µM [inhibitor, full curve, poor fit]"
N/C(=N\OC(=O)/C=C/c1ccccc1)c1ccccn1,inactive: 19.5% [at 9.22 µM],–
O=C(NCCc1ccccc1)C1CCN(S(=O)(=O)N2CCCCCC2)CC1,inactive: 19.2%,–
c1cncc(-c2nc3c(ccc4ccccc43)[nH]2)c1,–,"inconclusive: 14.1 µM [inhibitor, single point]"
O=C(Nc1ccc(Cl)c(Cl)c1)Nc1nnc(CSc2ccccc2)s1,–,active: 2.82 µM
OCC#Cc1ncc(C(F)(F)F)cc1Cl,–,"inconclusive: 22.4 µM [inhibitor, single point]"
Cc1c(NC(=O)/C(C#N)=C/c2ccccc2)c(=O)n(-c2ccccc2)n1C,inactive: -0.454%,–
CC(C)C(=O)Nc1cc(S(=O)(=O)Nc2cccc(Cl)c2)ccc1Cl,–,"inconclusive: 5.62 µM [inhibitor, single point]"
COc1ccc(/C=N/NC(=O)C(C)n2cnc3ccccc3c2=O)cc1 (stereo unspecified),inactive: 8.62%,–
CC(=O)CC1OC(=O)C(Br)=C1NCc1ccccc1 (stereo unspecified),–,"inconclusive: 0.398 µM [activator, partial curve]"
COc1ccc(S(=O)(=O)N2CCCC(C(=O)Nc3cccnc3)C2)cc1Cl (stereo unspecified),–,"inconclusive: 22.4 µM [inhibitor, single point]"
COC(=O)c1c(NC(=O)c2cnccn2)sc2c1CCC2,–,"inconclusive: 0.708 µM [activator, single point]"
c1cc2c(cc1C1CCCCC1)c1c3n2CCN=C3CCC1,–,"inconclusive: 20 µM [inhibitor, partial curve, poor fit]"
